In patent publication US11306100B2, “Spirooxindole compounds as GSK3B inhibitors and process for preparation thereof” (COUNCIL OF SCIENTIFIC & INDUSTRIAL RESEARCH, priority 2017, dated 2022):
Some of these results come from one statement about several compounds together.

System: PANC-1 cells
Assay: Cell viability, Sulforhodamine B assay
Assay type: cell-based
Details: higher concentration of test compound, low concentration of TRAIL (1 ηg/mL)
Description: Cell viability was measured using Sulforhodamine B assay. The cytotoxic effect of the compounds with GSK3β inhibitory potential was tested against PANC-1 cells. Initially, the PANC-1 cells were seeded in flat bottom 96-well plate (5000 cells/100 μL) in complete medium and cultured for 18 hrs under standard conditions. After 18 h the cells were treated with either the different concentration of compounds, standard drugs or DMSO as solvent control. The final DMSO concentration to cells was maintained <2% in all cytotoxic assays. Each compound was tested in triplicate and the cytotoxicity was determined as the average of that triplicate. Further, the plates were incubated for another 48 h in an incubator maintained at 37° C. with a constant supply of 5% CO2. The cells were fixed using 10% TCA and incubated for 1 h at 4° C. Then the plates were rinsed carefully with MQ water and air dried at room temperature. To all the wells of MTP plate 0.057% SRB solution was added and kept for approximately 30 min before it was rinsed off using 1% acetic acid. The plates were then air dried and 100 μL of 10 mM tris base was added to each well to solubilize the SRB before absorbance was measured at 510 nm. The measure of absorbance is directly proportional to cell growth and is thus used to calculate % reduction in the rate of cell proliferation according to control DMSO treated cells. […]

Row | SMILES | growth inhibition
1 | CCOC(=O)c1ccc(-c2ccccc2OCc2cn(CC3CC4(CO3)C(=O)Nc3ccccc34)nn2)nc1C (centres unmarked) [AB-O, Ethyl 2-methyl-6-(2-((1-((2′-oxo-4,5-dihydro-2H-spiro[furan-3,3′-indoline]-5-yl)methyl)-1H-1,2,3-triazol-4-yl)methoxy)phenyl)nicotinate] | more than 50%
2 | COc1ccccc1N1CCN(CC2CC3(CO2)C(=O)Nc2ccccc23)CC1 (centres unmarked) [AB-U, 5-((4-(2-Methoxyphenyl)piperazin-1-yl)methyl)-4,5-dihydro-2H-spiro[furan-3,3′-indolin]-2′-one] | more than 50%
